Data: the supplement of paper PMC11006884
The list shows a part of the results, in another mix than the full data.

Sequences of proteins named here, by UniProt entry; tags and fusion partners are left off. A change or cut given only in a name is not applied to a line headed by its entry.
UniProt P22307: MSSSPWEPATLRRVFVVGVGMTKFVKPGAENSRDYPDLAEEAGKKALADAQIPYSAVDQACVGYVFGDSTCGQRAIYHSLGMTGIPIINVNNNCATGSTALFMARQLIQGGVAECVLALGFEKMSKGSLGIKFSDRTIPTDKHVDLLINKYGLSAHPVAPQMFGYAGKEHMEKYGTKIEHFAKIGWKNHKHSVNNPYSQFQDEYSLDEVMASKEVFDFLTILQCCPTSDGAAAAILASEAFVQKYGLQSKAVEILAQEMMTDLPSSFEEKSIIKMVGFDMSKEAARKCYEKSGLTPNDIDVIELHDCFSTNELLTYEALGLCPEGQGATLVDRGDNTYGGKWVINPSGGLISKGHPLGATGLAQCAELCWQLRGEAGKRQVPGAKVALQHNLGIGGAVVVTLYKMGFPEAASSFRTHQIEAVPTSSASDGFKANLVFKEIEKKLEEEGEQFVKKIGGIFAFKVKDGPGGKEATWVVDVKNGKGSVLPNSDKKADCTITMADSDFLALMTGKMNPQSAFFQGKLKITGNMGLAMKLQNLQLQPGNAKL
UniProt P22102: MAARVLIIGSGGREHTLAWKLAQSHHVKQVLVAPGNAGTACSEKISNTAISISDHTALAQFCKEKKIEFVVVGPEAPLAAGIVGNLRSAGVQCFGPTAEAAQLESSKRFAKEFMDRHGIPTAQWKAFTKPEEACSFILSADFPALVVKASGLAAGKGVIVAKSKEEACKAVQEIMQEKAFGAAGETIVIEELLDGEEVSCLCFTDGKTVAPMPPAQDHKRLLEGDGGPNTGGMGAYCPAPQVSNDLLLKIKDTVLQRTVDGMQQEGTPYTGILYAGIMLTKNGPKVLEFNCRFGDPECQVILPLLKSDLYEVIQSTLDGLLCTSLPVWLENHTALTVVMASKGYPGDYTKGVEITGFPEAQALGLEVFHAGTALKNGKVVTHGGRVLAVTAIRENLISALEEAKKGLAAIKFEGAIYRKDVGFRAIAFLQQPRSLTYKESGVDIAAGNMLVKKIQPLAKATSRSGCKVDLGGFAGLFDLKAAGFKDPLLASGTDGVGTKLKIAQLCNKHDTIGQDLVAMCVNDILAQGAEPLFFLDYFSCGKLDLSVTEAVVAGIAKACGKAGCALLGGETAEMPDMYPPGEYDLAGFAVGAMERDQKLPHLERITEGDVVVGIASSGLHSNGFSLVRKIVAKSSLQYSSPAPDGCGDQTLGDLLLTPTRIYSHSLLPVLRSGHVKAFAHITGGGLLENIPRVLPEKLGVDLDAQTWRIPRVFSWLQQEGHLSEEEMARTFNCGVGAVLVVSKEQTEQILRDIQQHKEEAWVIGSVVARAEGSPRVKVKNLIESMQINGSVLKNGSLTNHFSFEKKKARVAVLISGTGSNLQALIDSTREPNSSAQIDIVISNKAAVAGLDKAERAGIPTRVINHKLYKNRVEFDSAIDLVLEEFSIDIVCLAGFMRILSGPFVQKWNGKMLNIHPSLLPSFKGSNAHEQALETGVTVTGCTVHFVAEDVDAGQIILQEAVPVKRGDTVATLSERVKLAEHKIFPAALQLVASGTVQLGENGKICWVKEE
UniProt P20839, whole entry, looked up: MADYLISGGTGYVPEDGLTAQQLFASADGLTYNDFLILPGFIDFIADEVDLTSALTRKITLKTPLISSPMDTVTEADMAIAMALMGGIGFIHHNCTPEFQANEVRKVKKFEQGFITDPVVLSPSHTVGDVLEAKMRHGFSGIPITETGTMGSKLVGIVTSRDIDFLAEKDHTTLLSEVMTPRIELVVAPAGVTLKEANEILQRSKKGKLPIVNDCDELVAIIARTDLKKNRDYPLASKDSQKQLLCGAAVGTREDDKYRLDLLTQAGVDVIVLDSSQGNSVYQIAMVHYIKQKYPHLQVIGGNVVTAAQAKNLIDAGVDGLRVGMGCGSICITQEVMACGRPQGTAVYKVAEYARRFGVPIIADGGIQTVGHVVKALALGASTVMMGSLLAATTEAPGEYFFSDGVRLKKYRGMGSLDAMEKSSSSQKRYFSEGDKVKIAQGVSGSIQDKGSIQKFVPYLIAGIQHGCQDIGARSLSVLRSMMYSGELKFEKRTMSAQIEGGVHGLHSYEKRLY
UniProt P26368, whole entry, looked up: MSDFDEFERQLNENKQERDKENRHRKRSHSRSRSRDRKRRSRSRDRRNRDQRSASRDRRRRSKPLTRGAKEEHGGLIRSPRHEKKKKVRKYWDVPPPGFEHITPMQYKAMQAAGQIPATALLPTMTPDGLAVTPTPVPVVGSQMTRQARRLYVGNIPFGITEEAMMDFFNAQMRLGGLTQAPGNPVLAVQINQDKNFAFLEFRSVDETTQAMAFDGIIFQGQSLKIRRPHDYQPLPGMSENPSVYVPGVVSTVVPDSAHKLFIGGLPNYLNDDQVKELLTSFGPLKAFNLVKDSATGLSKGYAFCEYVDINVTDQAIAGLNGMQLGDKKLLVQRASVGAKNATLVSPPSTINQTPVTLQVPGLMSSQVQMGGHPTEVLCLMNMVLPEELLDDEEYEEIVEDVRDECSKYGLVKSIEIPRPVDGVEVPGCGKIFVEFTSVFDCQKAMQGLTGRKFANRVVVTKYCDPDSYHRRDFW
UniProt P27348: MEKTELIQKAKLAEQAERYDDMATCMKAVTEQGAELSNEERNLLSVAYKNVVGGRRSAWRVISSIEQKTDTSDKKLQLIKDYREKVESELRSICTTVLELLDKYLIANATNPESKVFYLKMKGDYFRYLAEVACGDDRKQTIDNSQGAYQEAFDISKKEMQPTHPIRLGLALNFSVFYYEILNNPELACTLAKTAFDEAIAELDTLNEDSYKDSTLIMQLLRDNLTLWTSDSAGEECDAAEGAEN
UniProt P19404, whole entry: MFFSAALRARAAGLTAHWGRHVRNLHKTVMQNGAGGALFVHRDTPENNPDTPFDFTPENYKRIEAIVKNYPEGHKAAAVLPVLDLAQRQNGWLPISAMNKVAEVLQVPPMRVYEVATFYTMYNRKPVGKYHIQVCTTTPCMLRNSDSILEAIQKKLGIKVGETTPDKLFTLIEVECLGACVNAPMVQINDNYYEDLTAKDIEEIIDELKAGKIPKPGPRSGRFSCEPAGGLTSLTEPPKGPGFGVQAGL
UniProt P21964: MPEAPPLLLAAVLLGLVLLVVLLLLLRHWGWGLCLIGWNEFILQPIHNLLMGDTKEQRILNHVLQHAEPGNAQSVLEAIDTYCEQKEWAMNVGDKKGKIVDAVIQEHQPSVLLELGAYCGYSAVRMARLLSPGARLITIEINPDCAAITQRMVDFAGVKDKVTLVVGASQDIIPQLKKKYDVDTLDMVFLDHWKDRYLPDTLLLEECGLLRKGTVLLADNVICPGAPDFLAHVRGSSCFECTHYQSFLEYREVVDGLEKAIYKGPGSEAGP
UniProt P25054, whole entry, looked up: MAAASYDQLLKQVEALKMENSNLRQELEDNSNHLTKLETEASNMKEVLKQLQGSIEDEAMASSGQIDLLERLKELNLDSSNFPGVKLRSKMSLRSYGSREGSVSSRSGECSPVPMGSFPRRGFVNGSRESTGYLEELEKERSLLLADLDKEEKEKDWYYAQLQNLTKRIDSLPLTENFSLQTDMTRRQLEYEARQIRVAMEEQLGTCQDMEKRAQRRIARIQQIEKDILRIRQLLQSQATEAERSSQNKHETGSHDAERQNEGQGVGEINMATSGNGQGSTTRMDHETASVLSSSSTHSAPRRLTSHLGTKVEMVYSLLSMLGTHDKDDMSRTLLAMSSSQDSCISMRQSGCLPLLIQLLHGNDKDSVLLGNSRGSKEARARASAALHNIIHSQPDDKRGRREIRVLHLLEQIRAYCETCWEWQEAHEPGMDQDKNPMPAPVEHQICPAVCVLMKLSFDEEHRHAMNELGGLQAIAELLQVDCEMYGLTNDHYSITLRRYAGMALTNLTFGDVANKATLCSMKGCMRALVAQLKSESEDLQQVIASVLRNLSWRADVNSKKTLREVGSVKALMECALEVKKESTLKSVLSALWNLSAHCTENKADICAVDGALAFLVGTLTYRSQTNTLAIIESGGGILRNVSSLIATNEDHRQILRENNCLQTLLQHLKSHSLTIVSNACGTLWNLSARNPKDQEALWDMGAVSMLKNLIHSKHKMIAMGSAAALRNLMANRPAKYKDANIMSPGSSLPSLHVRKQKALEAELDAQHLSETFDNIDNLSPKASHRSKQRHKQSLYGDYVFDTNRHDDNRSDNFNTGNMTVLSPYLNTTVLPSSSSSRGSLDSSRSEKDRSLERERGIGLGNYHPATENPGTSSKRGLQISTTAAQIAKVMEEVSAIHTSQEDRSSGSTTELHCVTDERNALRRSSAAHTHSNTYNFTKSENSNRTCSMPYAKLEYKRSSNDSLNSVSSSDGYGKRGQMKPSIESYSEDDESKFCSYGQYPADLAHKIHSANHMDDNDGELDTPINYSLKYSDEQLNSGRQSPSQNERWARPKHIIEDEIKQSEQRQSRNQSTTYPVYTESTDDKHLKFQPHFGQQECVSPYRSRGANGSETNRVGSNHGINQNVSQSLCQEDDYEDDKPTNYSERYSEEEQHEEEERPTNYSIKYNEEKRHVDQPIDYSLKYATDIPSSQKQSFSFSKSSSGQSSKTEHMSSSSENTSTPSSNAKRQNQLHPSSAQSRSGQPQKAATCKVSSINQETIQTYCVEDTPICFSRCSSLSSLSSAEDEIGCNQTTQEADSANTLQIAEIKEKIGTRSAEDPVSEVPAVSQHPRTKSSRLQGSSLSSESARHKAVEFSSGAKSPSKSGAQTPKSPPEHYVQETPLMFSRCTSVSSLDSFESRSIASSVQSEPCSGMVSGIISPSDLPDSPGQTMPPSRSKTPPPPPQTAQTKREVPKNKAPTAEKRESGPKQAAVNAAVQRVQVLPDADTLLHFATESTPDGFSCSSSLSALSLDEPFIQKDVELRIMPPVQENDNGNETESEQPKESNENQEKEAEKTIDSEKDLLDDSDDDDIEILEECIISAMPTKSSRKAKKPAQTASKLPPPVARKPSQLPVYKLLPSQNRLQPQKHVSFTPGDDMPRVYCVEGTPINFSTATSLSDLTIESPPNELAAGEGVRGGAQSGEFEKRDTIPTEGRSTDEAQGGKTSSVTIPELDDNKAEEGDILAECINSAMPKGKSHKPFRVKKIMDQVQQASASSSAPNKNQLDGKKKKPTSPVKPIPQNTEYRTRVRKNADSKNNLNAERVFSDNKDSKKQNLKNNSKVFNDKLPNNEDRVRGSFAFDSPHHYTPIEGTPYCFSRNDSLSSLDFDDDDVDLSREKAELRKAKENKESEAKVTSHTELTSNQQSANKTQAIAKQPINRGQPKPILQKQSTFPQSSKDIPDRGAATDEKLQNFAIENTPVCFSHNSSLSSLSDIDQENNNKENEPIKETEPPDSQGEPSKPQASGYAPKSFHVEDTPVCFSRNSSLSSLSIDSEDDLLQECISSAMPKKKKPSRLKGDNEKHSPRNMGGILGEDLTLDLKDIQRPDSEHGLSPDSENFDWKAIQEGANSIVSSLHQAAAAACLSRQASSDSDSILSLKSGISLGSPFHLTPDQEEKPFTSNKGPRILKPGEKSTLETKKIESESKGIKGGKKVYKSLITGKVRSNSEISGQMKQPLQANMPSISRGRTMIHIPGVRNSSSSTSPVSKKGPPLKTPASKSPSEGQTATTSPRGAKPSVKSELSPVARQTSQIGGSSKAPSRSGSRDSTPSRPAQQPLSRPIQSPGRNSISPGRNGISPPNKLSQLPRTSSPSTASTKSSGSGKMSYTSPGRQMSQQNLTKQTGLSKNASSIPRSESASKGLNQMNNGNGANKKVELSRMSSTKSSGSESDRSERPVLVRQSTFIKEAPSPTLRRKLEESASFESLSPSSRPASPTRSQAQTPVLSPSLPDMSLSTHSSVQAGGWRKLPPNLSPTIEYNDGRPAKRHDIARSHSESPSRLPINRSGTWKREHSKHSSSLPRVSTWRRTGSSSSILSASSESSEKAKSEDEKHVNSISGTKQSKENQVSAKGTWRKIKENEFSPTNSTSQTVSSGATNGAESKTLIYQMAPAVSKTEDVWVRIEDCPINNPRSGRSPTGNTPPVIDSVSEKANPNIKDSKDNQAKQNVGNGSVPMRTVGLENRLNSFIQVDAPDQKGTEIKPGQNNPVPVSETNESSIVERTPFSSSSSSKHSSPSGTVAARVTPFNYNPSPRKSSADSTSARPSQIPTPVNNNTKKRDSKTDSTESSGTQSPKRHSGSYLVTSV

Compound: COC(=O)C#Cc1ccccc1 [methyl 3-phenylpropiolate]
Assay: log2 ratio of iodoacetamide-alkyne labeling of the cysteine site, DMSO over compound (competition); higher = stronger covalent engagement of the cysteine by the compound, active = 1 or more
Details: 500 µM; treatment time 1 h; system: HEK293T cell lysate
Outline: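 After 1 h at ambient temperature with vehicle or electrophile (500 µM), HEK293T lysate (2 mg/mL) was labelled for 1 h with iodoacetamide alkyne and clicked to sCIP-TMT reagents. Pooled samples were trypsin-digested overnight at 37 °C, streptavidin-enriched, acid-eluted and analysed by Orbitrap Eclipse LC-MS/MS with FAIMS, then quantified in FragPipe over three replicates with duplicate channels. A cysteine's log2 competition ratio is its mean control-channel over mean compound-channel reporter intensity. Cysteines quantified in only one replicate were not included.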

Target	log2 ratio of iodoacetamide-alkyne labeling
FLNA C1157 (UniProt P21333)	inactive: 0.106
SCP2 C94 (UniProt P22307)	inactive: 0.136
GART C93 (UniProt P22102)	inactive: 0.192
POLD1 C428 (UniProt P28340)	inactive: 0.281
IMPDH1 C215 (UniProt P20839)	inactive: 0.0691
U2AF2 C464 (UniProt P26368)	inactive: -0.0557
YWHAQ C25 (UniProt P27348)	inactive: -0.104
PFKL C170 (UniProt P17858)	inactive: 0.343
NDUFV2 C225 (UniProt P19404)	inactive: 0.2
NF1 C383 (UniProt P21359)	inactive: 0.376
UniProt P25398_C130	inactive: 0.337
COMT C145 (UniProt P21964)	inactive: 0.0366
DNMT1 C1478 (UniProt P26358)	inactive: 0.24
FLNA C2107 (UniProt P21333)	inactive: 0.12
APC C1387 (UniProt P25054)	inactive: 0.256
